Reference: article PMC12443970
No constants are given. Whether binding was seen depends on the method and setting. Binding seen in cells or lysates may run through a third protein. These calls come from enrichment with a bait or labelling near it, and not all partners need be listed.

Target: T1, recombinant PDK1 (3-phosphoinositide-dependent protein kinase 1), stably expressed in Jurkat cells (UniProt O15530)
T1 sequence: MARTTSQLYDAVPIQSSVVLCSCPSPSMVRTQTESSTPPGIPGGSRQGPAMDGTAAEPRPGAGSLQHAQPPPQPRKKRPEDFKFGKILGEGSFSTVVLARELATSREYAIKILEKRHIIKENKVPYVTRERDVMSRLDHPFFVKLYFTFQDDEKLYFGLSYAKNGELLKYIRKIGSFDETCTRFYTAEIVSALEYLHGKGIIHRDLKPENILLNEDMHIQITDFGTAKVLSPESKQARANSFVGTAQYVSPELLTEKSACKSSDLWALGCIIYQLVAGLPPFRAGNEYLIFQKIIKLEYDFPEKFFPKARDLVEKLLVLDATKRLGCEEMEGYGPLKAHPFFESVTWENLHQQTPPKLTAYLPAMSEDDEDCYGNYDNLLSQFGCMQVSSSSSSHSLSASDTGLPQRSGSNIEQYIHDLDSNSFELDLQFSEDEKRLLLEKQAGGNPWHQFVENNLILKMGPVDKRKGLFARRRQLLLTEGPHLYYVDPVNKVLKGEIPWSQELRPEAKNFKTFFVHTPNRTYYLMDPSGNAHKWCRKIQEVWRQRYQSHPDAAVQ
Test: affinity purification with mass spectrometry; recombinant PDK1 purified from stably expressing Jurkat cells via the tag pull-down method; copurified proteins visualized by silver staining and identified by mass fingerprinting

binding: binds
B1: PANK4 (pantothenate kinase 4), copurified from Jurkat cells (protein, UniProt Q9NVE7 1-773)
chain: MAECGASGSGSSGDSLDKSITLPPDEIFRNLENAKRFAIDIGGSLTKLAYYSTVQHKVAKVRSFDHSGKDTEREHEPPYEISVQEEITARLHFIKFENTYIEACLDFIKDHLVNTETKVIQATGGGAYKFKDLIEEKLRLKVDKEDVMTCLIKGCNFVLKNIPHEAFVYQKDSDPEFRFQTNHPHIFPYLLVNIGSGVSIVKVETEDRFEWVGGSSIGGGTFWGLGALLTKTKKFDELLHLASRGQHSNVDMLVRDVYGGAHQTLGLSGNLIASSFGKSATADQEFSKEDMAKSLLHMISNDIGQLACLHARLHSLDRVYFGGFFIRGHPVTMRTITYSINFFSKGEVQALFLRHEGYLGAIGAFLKGAEQDNPNQYSWGENYAGSSGLMSASPELGPAQRARSGTFDLLEMDRLERPLVDLPLLLDPPSYVPDTVDLTDDALARKYWLTCFEEALDGVVKRAVASQPDSVDAAERAEKFRQKYWNKLQTLRQQPFAYGTLTVRSLLDTREHCLNEFNFPDPYSKVKQRENGVALRCFPGVVRSLDALGWEERQLALVKGLLAGNVFDWGAKAVSAVLESDPYFGFEEAKRKLQERPWLVDSYSEWLQRLKGPPHKCALIFADNSGIDIILGVFPFVRELLLRGTEVILACNSGPALNDVTHSESLIVAERIAGMDPVVHSALQEERLLLVQTGSSSPCLDLSRLDKGLAALVRERGADLVVIEGMGRAVHTNYHAALRCESLKLAVIKNAWLAERLGGRLFSVIFKYEVPAE
